Assay results published in US20040138422A1 (published 2004).
No constants are given. Whether binding was seen depends on the method and setting. Some entries that bind do so weakly or less than the wild type.

Chains of the proteins cited; added tags and fusions are not shown. Lines headed by an entry give the natural chain unless they say otherwise; changes in a name come on top.
UniProt P51671: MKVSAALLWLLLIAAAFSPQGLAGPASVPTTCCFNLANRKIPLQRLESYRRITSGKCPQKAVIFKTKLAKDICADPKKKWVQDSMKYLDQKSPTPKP

Molecular target: T1, CCR3 on transfected cell line (UniProt P51677)
T1 sequence (looked up): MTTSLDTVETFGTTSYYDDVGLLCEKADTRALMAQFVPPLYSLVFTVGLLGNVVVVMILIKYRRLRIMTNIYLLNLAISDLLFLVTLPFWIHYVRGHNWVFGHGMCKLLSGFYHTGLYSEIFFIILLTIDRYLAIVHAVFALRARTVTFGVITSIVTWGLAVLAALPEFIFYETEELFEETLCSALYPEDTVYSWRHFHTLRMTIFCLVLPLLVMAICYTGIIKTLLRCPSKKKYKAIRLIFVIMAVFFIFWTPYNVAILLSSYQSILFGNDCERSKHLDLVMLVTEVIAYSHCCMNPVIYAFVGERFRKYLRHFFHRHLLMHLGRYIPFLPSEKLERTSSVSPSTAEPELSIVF
Test: whole cell binding assay on receptor-transfected cell line, biotinylated chemokine

- binding: binds
Substance: biotinylated CCL11/Eotaxin (biotin in position 73) (from UniProt P51671 24-97) (ligand)
